In the supplement of paper PMC5770031:
“And” between values parts separate entries of the source, which are not always exact repeats. Identical values can stand only once. The list shows a part of the results. This data set is noisy: repeats of one test often differ as much as different tests do.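 ATM8/balancer (normal ATM) heterozygous flies were crossed on treated food; parents laid eggs 5–6 days, offspring developed ~12 days, so parents and larvae ingested compound. Readout: fraction of emerged adults homozygous for ATM8 versus 2% DMSO controls. Compounds were neutral at 10–20% homozygotes, harmful below 10%, helpful above 20%.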

These molecules were tested on Drosophila melanogaster ATM8 (temperature-sensitive ATM allele) (assay: fraction of eclosed F1 progeny that are homozygous ATM8 (rescue of developmental lethality); higher = more rescue of ATM8 developmental lethality; extreme values may be limits of the assay). Conditions: compound concentration applied to food 0.2 mM; 21 °C.
`C[C@H]1O[C@@H](n2cc(F)c(=O)[nH]c2=O)[C@H](O)[C@@H]1O` was tested, and the “fraction of eclosed F1 progeny that are homozygous ATM8” value (“fraction” below) was 0.163. With `CN(C/C=C/c1ccccc1)Cc1cccc2ccccc12` the “fraction” value was 0.0857. `C=C1[C@@H]([C@@]2(C)C=CC(=O)C(C)(C)[C@@H]2CC(=O)OC)CC[C@@]2(C)[C@H](c3ccoc3)OC(=O)[C@H]3O[C@]132` was tested, and the “fraction” value was 0.0851. With `CC(=O)CCCCn1c(=O)c2c(ncn2C)n(C)c1=O` the “fraction” value was 0.143. For `CN1C(=O)OC(C)(C)C1=O`, the “fraction” value was 0.0256. `C[C@@H]1CC[C@@]2(OC1)O[C@H]1C[C@H]3[C@@H]4CC[C@H]5C[C@@H](O)CC[C@]5(C)[C@H]4CC(=O)[C@]3(C)[C@H]1[C@@H]2C` was tested, and the “fraction” value was 0.179. With `CC1(C)O[C@@H]2C[C@H]3[C@@H]4CCC5=CC(=O)CC[C@]5(C)[C@@]4(F)[C@@H](O)C[C@]3(C)[C@]2(C(=O)CCl)O1` the “fraction” value was 0.0531. `C[C@]12C=CC(=O)C=C1CC[C@H]1[C@@H]3C[C@@H](O)[C@](O)(C(=O)CO)[C@@]3(C)C[C@H](O)[C@@]12F` was tested, and the “fraction” value was 0.152. In the case of `Cc1ccc(-c2nc3ccc(C)cn3c2CC(=O)N(C)C)cc1`, the “fraction” value is reported as 0.283. `C[C@@H]1O[C@@H](OC[C@H]2O[C@@H](Oc3c(-c4ccc(OCCO)c(OCCO)c4)oc4cc(OCCO)cc(O)c4c3=O)[C@H](O)[C@@H](O)[C@@H]2O)[C@H](O)[C@H](O)[C@H]1O` was tested, and the “fraction” value was 0.0652. In the case of `CCN(CC)C(=O)/C(C#N)=C/c1cc(O)c(O)c([N+](=O)[O-])c1`, the “fraction” value is reported as 0.107. For `C[C@@H](O)[C@H]1C(=O)N2C(C(=O)O)=C(S[C@@H]3CN[C@H](C(=O)N(C)C)C3)[C@H](C)[C@H]12`, the “fraction” value was 0.0377. With `CC(=O)O[C@H]1C[C@@H]2CC[C@@H]3[C@H](CC[C@@]4(C)[C@H]3C[C@H]([N+]3(C)CCCCC3)[C@@H]4OC(C)=O)[C@@]2(C)C[C@@H]1N1CCCCC1` the “fraction” value was 0.0612. `CN1[C@@H]2CC[C@H]1C[C@@H](OC(=O)[C@H](CO)c1ccccc1)C2` was tested, and the “fraction” value was 0.13. In the case of `Cc1cc(C)cc(OCC2CNC(=O)O2)c1` (stereo unspecified), the “fraction” value is reported as 0.0714. With `COc1ccc(C(=O)O)c(O)c1OC` the “fraction” value was 0.306. `O=C(O)[C@H](O)[C@@H](O)[C@H](O[C@@H]1O[C@H](CO)[C@H](O)[C@H](O)[C@H]1O)[C@H](O)CO` was tested, and the “fraction” value was 0.0303. `CCCCCC(=O)O[C@]1(C(C)=O)CC[C@H]2[C@@H]3CCC4=CC(=O)CC[C@]4(C)[C@H]3CC[C@@]21C` was tested, and the “fraction” value was 0.263. With `O=C(O[C@@H]1Cc2c(O)cc(O)cc2O[C@@H]1c1ccc(O)c(O)c1)c1cc(O)c(O)c(O)c1` the “fraction” value was 0.0597. `OC(c1cc(C(F)(F)F)nc2c(C(F)(F)F)cccc12)C1CCCCN1` (stereo unspecified) was tested, and the “fraction” value was 0.149. For `Cc1coc2c1C(=O)C(=O)c1c-2ccc2c1CCCC2(C)C`, the “fraction” value was 0.183. In the case of `CC[C@H]1OC(=O)C[C@@H](O)[C@H](C)[C@@H](O[C@@H]2O[C@H](C)[C@@H](O)[C@H](N(C)C)[C@H]2O)[C@@H](CCN2C[C@H](C)C[C@H](C)C2)C[C@@H](C)C(=O)/C=C/C(C)=C/[C@@H]1CO[C@@H]1O[C@H](C)[C@@H](O)[C@@H](OC)[C@H]1OC`, the “fraction” value is reported as 0.1. With `CNCCCC12CCC(c3ccccc31)c1ccccc12` the “fraction” value was 0.0513. `C=C(C)[C@@H]1CC[C@]2(CO)CC[C@]3(C)[C@H](CC[C@@H]4[C@@]5(C)CC[C@H](O)C(C)(C)[C@@H]5CC[C@]43C)[C@@H]12` was tested, and the “fraction” value was 0.24. `CCCN(CCC)CCc1cccc2c1CC(=O)N2` was tested, and the “fraction” value was 0.196. With `O[C@H]1[C@H](O)[C@@H](O)[C@H](O)[C@@H](O)[C@H]1O` the “fraction” value was 0.108. `COc1ccc2c(c1)CC[C@@H]1[C@@H]2CC[C@]2(C)[C@@H](O)CC[C@@H]12` was tested, and the “fraction” value was 0.087. With `COc1cccc2c1C(=O)c1c(O)c3c(c(O)c1C2=O)C[C@@](O)(C(=O)CO)C[C@@H]3O[C@H]1C[C@H](N)[C@@H](O)[C@H](C)O1` the “fraction” value was 0.0649. `CC(=O)O[C@H]1C(=O)[C@@]2(C)[C@H]([C@H](OC(=O)c3ccccc3)[C@]3(O)C[C@H](OC(=O)[C@H](O)[C@@H](NC(=O)c4ccccc4)c4ccccc4)C(C)=C1C3(C)C)[C@]1(OC(C)=O)CO[C@@H]1C[C@@H]2O` was tested, and the “fraction” value was 0.0667. `CNNC` was tested, and the “fraction” value was 0.181. In the case of `CC(=O)c1ccc[nH]1`, the “fraction” value is reported as 0.22. In the case of `NC(=O)c1cnccn1`, the “fraction” value is reported as 0.1. For `CC(C)(C)CC(C)(C)c1cc(Cc2cc(C(C)(C)CC(C)(C)C)cc(-n3nc4ccccc4n3)c2O)c(O)c(-n2nc3ccccc3n2)c1`, the “fraction” value was 0.13. For `CSc1nc2cc(Cl)c(Oc3cccc(Cl)c3Cl)cc2[nH]1`, the “fraction” value was 0.231. `Cc1nc2ccccn2c(=O)c1CCN1CCC(C(=O)c2ccc(F)cc2)CC1` was tested, and the “fraction” value was 0.0469. For `O=C(CCNNC(=O)c1ccncc1)NCc1ccccc1`, the “fraction” value was 0.167. `CCCn1c(=O)c2[nH]c(C3CCCC3)nc2n(CCC)c1=O` was tested, and the “fraction” value was 0.0294. With `O=C(/C=C/c1ccccc1)c1ccc(O[C@@H]2O[C@H](CO)[C@@H](O)[C@H](O)[C@H]2O)cc1O` the “fraction” value was 0.0976. `CC1/C(=N/O)C[C@@H]2C[C@H]1C2(C)C` (stereo partly specified) was tested, and the “fraction” value was 0.0606. With `O=C(O)c1cc(=O)[nH]c(=O)[nH]1` the “fraction” value was 0.143. For `O=c1n(CCCN2CCN(c3cccc(Cl)c3)CC2)nc2ccccn12`, the “fraction” value was 0.0698. With `CC(=O)NCCCCCC(=O)O` the “fraction” value was 0.0833. `COc1ccc2c(c1)[C@]13CCCC[C@@H]1[C@H](C2)N(C)CC3` was tested, and the “fraction” value was 0.0667. `COc1ccc([C@@H](C)C(=O)c2ccc(O)cc2O)cc1` was tested, and the “fraction” value was 0.304. For `C=C[C@H]1CN2CC[C@H]1C[C@H]2[C@H](O)c1ccnc2ccccc12`, the “fraction” value was 0.0612. For `C/C=C(/C(=C/C)c1ccc(O)cc1)c1ccc(O)cc1`, the “fraction” value was 0.0312. For `O=C(O)c1ccccc1OP(=O)(O)O`, the “fraction” value was 0.0784. In the case of `COC(=O)c1c(C)cc(OC(=O)c2c(C)cc(O)c(C=O)c2O)c(C)c1O`, the “fraction” value is reported as 0.289. In the case of `C[C@H]1O[C@@H](O[C@H]2[C@@H](O)C[C@H](O[C@H]3[C@@H](O)C[C@H](O[C@H]4CC[C@@]5(C)[C@H](CC[C@@H]6[C@@H]5CC[C@]5(C)[C@@H](C7=CC(=O)OC7)[C@@H](O)C[C@]65O)C4)O[C@@H]3C)O[C@@H]2C)C[C@H](O)[C@@H]1O`, the “fraction” value is reported as 0.387. With `CC1=C(/C=C/C(C)=C/C=C/C(C)=C/CO)C(C)(C)CCC1` the “fraction” value was 0.22. `C[C@]12CCC(=O)C=C1[C@@H]1C[C@@H]1[C@H]1[C@@H]3[C@@H]4C[C@@H]4[C@@]4(CCC(=O)O4)[C@@]3(C)CC[C@@H]12` was tested, and the “fraction” value was 0.104. In the case of `CC1=NCCc2c1[nH]c1cc(O)ccc21`, the “fraction” value is reported as 0.25 and 0.18. `C/C(=C\C(=O)OCCCCCCCCC(=O)O)C[C@@H]1OC[C@H](C[C@@H]2O[C@H]2[C@@H](C)[C@H](C)O)[C@@H](O)[C@H]1O` was tested, and the “fraction” value was 0.0294. For `CN/C(=N\CCSCc1nc[nH]c1C)NC#N`, the “fraction” value was 0.167. In the case of `N[C@@H](CSCSC[C@H](N)C(=O)O)C(=O)O`, the “fraction” value is reported as 0.0217. In the case of `O=C(O)c1cc(/N=N/c2ccc(S(=O)(=O)Nc3ccccn3)cc2)ccc1O`, the “fraction” value is reported as 0.0465. With `CCOc1ccc2nc(S(N)(=O)=O)sc2c1` the “fraction” value was 0.0303. For `c1coc(CNc2ncnc3[nH]cnc23)c1`, the “fraction” value was 0.244. `C[C@@H]1C[C@H]2[C@@H]3CCC4=CC(=O)C=C[C@]4(C)[C@@]3(Cl)[C@@H](O)C[C@]2(C)[C@@]1(OC(=O)c1ccco1)C(=O)CCl` was tested, and the “fraction” value was 0.333. With `O=C(O)c1ccccc1O` the “fraction” value was 0.0833. `CC(=O)Oc1cc(-c2coc3cc(OC(C)=O)c(OC(C)=O)c(OC(C)=O)c3c2=O)cc(OC(C)=O)c1OC(C)=O` was tested, and the “fraction” value was 0.117. In the case of `CC1/C=C/C=C/C=C/C=C/C=C/C=C/C=C/C(OC2O[C@H](C)[C@@H](O)[C@H](N)[C@@H]2O)CC(O)C(C(=O)O)C(O)CC(=O)CC(O)CC(O)CC(O)CC(=O)CCCC(=O)CC(=O)OC1C(C)CC(C)C(O)CC(=O)c1ccc(N)cc1` (stereo partly specified), the “fraction” value is reported as 0.293. With `O=c1oc2cc(O)ccc2s1` the “fraction” value was 0.0769. With `O=C1c2ccccc2C(=O)C1c1ccc(Br)cc1` the “fraction” value was 0.0417. `COc1cc(OC)c2c(c1)O[C@H](c1ccc(OC)c(OC)c1)[C@@H](O)C2` was tested, and the “fraction” value was 0.0353. In the case of `CC=CC1=C(C(=O)O)N2C(=O)[C@@H](NC(=O)[C@H](N)c3ccc(O)cc3)[C@H]2SC1`, the “fraction” value is reported as 0.203. With `C=CC[C@]1(O)CC[C@H]2[C@@H]3CCC4=CC(=O)CCC4=C3C=C[C@@]21C` the “fraction” value was 0.08. With `CCOC(=S)SSC(=S)OCC` the “fraction” value was 0.145. For `CC1(C)C(O[C@@H]2OC[C@@H](O)[C@H](O)[C@H]2O)CC[C@]23CC24CC[C@]2(C)[C@@H]([C@@]5(C)CC[C@@H](C(C)(C)O)O5)[C@H](O)C[C@@]2(C)C4C[C@@H](O[C@@H]2O[C@H](CO)[C@@H](O)[C@H](O)[C@H]2O)C13` (stereo partly specified), the “fraction” value was 0.182. In the case of `Cc1cc2c(s1)Nc1ccccc1N=C2N1CCN(C)CC1`, the “fraction” value is reported as 0. In the case of `CC(C)OC(=O)C(C)(C)Oc1ccc(C(=O)c2ccc(Cl)cc2)cc1`, the “fraction” value is reported as 0.0667. `OC[C@@H]1CCCN2CCCC[C@H]12` was tested, and the “fraction” value was 0.128. With `C[C@H]1[C@H](C)CC[C@]2(C(=O)O[C@@H]3O[C@H](CO[C@@H]4O[C@H](CO)[C@@H](O[C@@H]5O[C@H](C)[C@H](O)[C@@H](O)[C@H]5O)[C@H](O)[C@H]4O)[C@@H](O)[C@H](O)[C@H]3O)CC[C@]3(C)C(=CC[C@@H]4[C@@]5(C)C[C@@H](O)[C@H](O)[C@@](C)(CO)[C@@H]5CC[C@]43C)[C@H]12` the “fraction” value was 0.1. For `C1CCc2nnnn2CC1`, the “fraction” value was 0.197. In the case of `N#CCC(=O)NN`, the “fraction” value is reported as 0.125. `CN1CCCN=C1/C=C/c1cccc(O)c1` was tested, and the “fraction” value was 0.163. With `CC(N)CCCC(C)(C)O` (stereo unspecified) the “fraction” value was 0.116. With `Cc1cc(O)cc(C)c1Cl` the “fraction” value was 0.05. With `CC(=O)N(c1onc(C)c1C)S(=O)(=O)c1ccc(N)cc1` the “fraction” value was 0.0263. With `CC(Cc1ccc(O)cc1)NCC(O)c1cc(O)cc(O)c1` (stereo unspecified) the “fraction” value was 0.125. `Oc1cccc(O)c1` was tested, and the “fraction” value was 0.158. For `C=C[C@H]1CN2CC[C@H]1C[C@@H]2[C@@H](O)c1ccnc2ccccc12`, the “fraction” value was 0. For `C=C1CCC(C2CC(=O)OC2=O)C(=O)CCC2C1CC2(C)C` (stereo unspecified), the “fraction” value was 0.214. With `C=CCN=C=S` the “fraction” value was 0.107. For `Nc1c2ccccc2nc2ccccc12`, the “fraction” value was 0.118. For `CN1CCC(=C2c3ccccc3Sc3ccccc32)CC1`, the “fraction” value was 0.145.
